Experimental data reported in PubChem BioAssay AID330 (DTP/NCI, 2004).
The list shows only some results of the screen, not a fair sample: it is rich in T/C values a quarter to a half above the control, in often repeated tests (any T/C) and in doses without a T/C. Other doses and runs of a compound stand elsewhere. T/C is the treated group as % of the vehicle group. Some doses have a count of surviving animals in place of a T/C: the source holds a T/C of zero for them, seemingly a mark for toxic or unscored doses. Some survivor counts are full or nearly so, which does not show that the dose was tolerated: the source hardly ever lists a survival T/C far under the control, and the zero likely stands for such cases as well. Counts of survivors are from the toxicity check (mostly the fifth day) where no day follows; animals may have died later. Schedules are NCI's codes, read here as Q, the interval in days (D) or hours (H), X, the number of doses. Some entries hold several experiments; the results are listed from low to high. Where survival is the endpoint, the PubChem record calls one and a half times the control and up active, and a quarter to a half above the control has no call in these data; cut-offs in other NCI protocols can differ. Some T/C values carry the count of animals alive at the toxicity check (mostly the fifth day); without a count, all were alive then.

Test system: P388 leukemia ip, CD2F1 mice, survival T/C
Experiment: NCI In Vivo Anticancer Drug Screen. Data for tumor model P388 Leukemia (intraperitoneal) in CD2F1 (CDF1) mice
Conditions: T/C endpoint: median survival time, higher T/C = longer survival
[1] = dose: 200.0 mg/kg/injection, schedule: Q01DX005 (ip), vehicle: saline
[2] = dose: 100.0 mg/kg/injection, schedule: Q01DX009 (ip), vehicle: saline with Tween-80
[3] = dose: 400.0 mg/kg/injection, schedule: Q01DX009 (ip), vehicle: saline with Tween-80
[4] = dose: 200.0 mg/kg/injection, schedule: Q01DX005 (ip), vehicle: saline with Tween-80
[5] = dose: 240.0 mg/kg/injection, schedule: Q01DX005 (ip), vehicle: saline with Tween-80
[6] = dose: 6.25 mg/kg/injection, schedule: Q01DX005 (ip), vehicle: Klucel (hydroxypropylcellulose) (HPC)
[7] = dose: 50.0 mg/kg/injection, schedule: Q01DX009 (ip), vehicle: Klucel (hydroxypropylcellulose) (HPC)
[8] = dose: 200.0 mg/kg/injection, schedule: Q01DX009 (ip), vehicle: Klucel (hydroxypropylcellulose) (HPC)
[9] = dose: 100.0 mg/kg/injection, schedule: Q01DX009 (ip), vehicle: Klucel (hydroxypropylcellulose) (HPC)

CCN=C=NCCCN(C)C
survivor count (dose: 120.0 mg/kg/injection, schedule: Q01DX009 (ip), vehicle: saline): 0 of 6

CN(C)C1CCC(NC2=CC(=O)C=CC2=O)CC1 (stereo not drawn)
survivor count (dose: 6.25 mg/kg/injection, schedule: Q01DX005 (ip), vehicle: saline): 1 of 5 | survivor count (dose: 12.5 mg/kg/injection, schedule: Q01DX005 (ip), vehicle: saline): 0 of 5 | survivor count (dose: 25.0 mg/kg/injection, schedule: Q01DX005 (ip), vehicle: saline): 0 of 5 | survivor count (dose: 50.0 mg/kg/injection, schedule: Q01DX005 (ip), vehicle: saline): 0 of 5 | survivor count (dose: 100.0 mg/kg/injection, schedule: Q01DX005 (ip), vehicle: saline): 0 of 5 | survivor count [1]: 0 of 5

N#CC1=C(C#N)C(=O)c2ccccc2C1=O
survivor count [2]: 3 of 6

CC(C)(C)CC(C)(C)c1ccc(O)cc1
T/C (dose: 100.0 mg/kg/injection, schedule: Q01DX009 (ip), vehicle: saline sonified): 127 % of control | T/C (dose: 400.0 mg/kg/injection, schedule: Q01DX009 (ip), vehicle: saline sonified): 127 % of control

Cc1ccc(S(=O)(=O)Cl)cc1Cl
survivor count [2]: 3 of 6 | survivor count (dose: 200.0 mg/kg/injection, schedule: Q01DX009 (ip), vehicle: saline with Tween-80): 4 of 6 | survivor count [3]: 0 of 6

O=C(O)CNC(=O)C(CN1CC(=O)OC1c1ccc([N+](=O)[O-])cc1)N1C(=O)c2ccccc2C1=O (stereo not drawn)
survivor count (dose: 100.0 mg/kg/injection, schedule: Q04DX003 (ip), vehicle: saline with Tween-80): 6 of 6

CCCC(C)(C(=O)Nc1ccc2nc(C)cc(N)c2c1)C(=O)Nc1ccc2nc(C)cc(N)c2c1
survivor count [4]: 3 of 5

Cc1ccc2c(c1)C1(C)C=C(CN3CCN(C)CC3)C(=O)CC1O2 (stereo not drawn)
survivor count [1]: 0 of 6

COC1=C(OC)C(=O)C(COC2CCCCO2)=CC1=O (stereo not drawn)
survivor count (dose: 30.0 mg/kg/injection, schedule: Q01DX005 (ip), vehicle: saline with Tween-80): 1 of 6 | survivor count (dose: 60.0 mg/kg/injection, schedule: Q01DX005 (ip), vehicle: saline with Tween-80): 0 of 6 | survivor count (dose: 120.0 mg/kg/injection, schedule: Q01DX005 (ip), vehicle: saline with Tween-80): 0 of 6 | survivor count [5]: 0 of 6

Cc1noc(-c2ccc([N+](=O)[O-])o2)n1
survivor count (dose: 300.0 mg/kg/injection, schedule: Q01DX009 (ip), vehicle: Klucel (hydroxypropylcellulose) (HPC)): 4 of 6

Cc1c(C(N)=O)c2ccccc2c2ccccc12
survivor count (dose: 100.0 mg/kg/injection, schedule: Q01DX005 (ip), vehicle: saline with Tween-80): 4 of 5 | survivor count [4]: 5 of 5

N#CCN(CNC(=O)c1ccccc1)N=O
survivor count (dose: 400.0 mg/kg/injection, schedule: Q04DX002 (ip), vehicle: saline with Tween-80): 2 of 6

[Cl][Sn]([Cl])([c]1ccccc1)[c]1ccccc1.c1ccc(-c2nnc(-c3ccccn3)nc2-c2ccccc2)cc1
T/C (dose: 1.56 mg/kg/injection, schedule: Q01DX005 (ip), vehicle: Klucel (hydroxypropylcellulose) (HPC)): 125 % of control [5 of 6 alive] | T/C (dose: 3.12 mg/kg/injection, schedule: Q01DX005 (ip), vehicle: Klucel (hydroxypropylcellulose) (HPC)): 127 % of control | T/C [6]: 126 % of control | survivor count [6]: 2 of 6 and 3 of 6 | survivor count (dose: 12.5 mg/kg/injection, schedule: Q01DX005 (ip), vehicle: Klucel (hydroxypropylcellulose) (HPC)): 1 of 6 | survivor count (dose: 25.0 mg/kg/injection, schedule: Q01DX005 (ip), vehicle: Klucel (hydroxypropylcellulose) (HPC)): 0 of 6 | survivor count (dose: 50.0 mg/kg/injection, schedule: Q01DX005 (ip), vehicle: Klucel (hydroxypropylcellulose) (HPC)): 0 of 6

O=C(OCCN1CCN(CCCN2c3ccccc3Sc3ccc(C(F)(F)F)cc32)CC1)C12CC3CC(CC(C3)C1)C2
survivor count [7]: 6 of 6 | survivor count [8]: 6 of 6

ClC1=CC(=N/Br)/C=CC/1=N/Br
survivor count (dose: 400.0 mg/kg/injection, schedule: Q01DX005 (ip), vehicle: saline with Tween-80): 3 of 6 and 3 of 5

CC(=O)OCC(=O)[C@@]1(O)CC[C@H]2[C@@H]3C[C@H](C)C4=CC(=O)C=C[C@]4(C)[C@@]3(F)[C@@H](O)C[C@@]21C
survivor count [3]: 6 of 6

CCOC(=O)N1Cc2cc3ccccc3nc2C1CC(=O)O (stereo not drawn)
survivor count [9]: 5 of 6

COc1cc(N(C)C)c(OC)cc1/C=C\c1ccnc2ccccc12
T/C (dose: 200.0 mg/kg/injection, schedule: Q04DX003 (ip), vehicle: saline with Tween-80): 136 % of control | survivor count (dose: 400.0 mg/kg/injection, schedule: Q04DX003 (ip), vehicle: saline with Tween-80): 6 of 6

N#CC(C#N)=NNc1ccc([N+](=O)[O-])cc1Cl
survivor count (dose: 25.0 mg/kg/injection, schedule: Q01DX009 (ip), vehicle: Klucel (hydroxypropylcellulose) (HPC)): 0 of 6 | survivor count [7]: 0 of 6 | survivor count [9]: 1 of 6 | survivor count [8]: 0 of 6

O=[N+]([O-])c1cc(Cl)ccc1Cl
survivor count [3]: 3 of 6

CCN(CC)CCNC(=O)c1ccc2c(c1O)C(=O)c1ccccc1C2=O
survivor count [4]: 0 of 5

COC(=O)CCCCCCCCCCCCCCCCCCCCCCCCCCCCCCCCC(=O)OC
survivor count (dose: 100.0 mg/kg/injection, schedule: Q01DX001 (ip), vehicle: Klucel (hydroxypropylcellulose) (HPC)): 6 of 6 | survivor count (dose: 200.0 mg/kg/injection, schedule: Q01DX001 (ip), vehicle: Klucel (hydroxypropylcellulose) (HPC)): 6 of 6 | survivor count (dose: 400.0 mg/kg/injection, schedule: Q01DX001 (ip), vehicle: Klucel (hydroxypropylcellulose) (HPC)): 6 of 6

CC(=O)OC(C(=O)OC1C[C@]2(O)C(OC(=O)c3ccccc3)C3[C@@]4(OC(C)=O)CO[C@H]4C[C@@H](O)[C@]3(C)C(=O)[C@@H](OC(C)=O)C(=C1C)C2(C)C)C(NC(=O)c1ccccc1)c1ccccc1 (stereo partly drawn)
T/C (dose: 2.5 mg/kg/injection, schedule: Q01DX009 (ip), vehicle: Klucel (hydroxypropylcellulose) (HPC)): 127 % of control | T/C (dose: 5.0 mg/kg/injection, schedule: Q01DX009 (ip), vehicle: Klucel (hydroxypropylcellulose) (HPC)): 127 % of control | T/C (dose: 10.0 mg/kg/injection, schedule: Q01DX009 (ip), vehicle: Klucel (hydroxypropylcellulose) (HPC)): 130 % of control | T/C (dose: 20.0 mg/kg/injection, schedule: Q01DX009 (ip), vehicle: Klucel (hydroxypropylcellulose) (HPC)): 140 % of control

COc1ccc(C(C#N)C(=O)C(=O)Nc2ccc(C)cc2C)cc1OC (stereo not drawn)
survivor count [5]: 0 of 6

CC1(C)OC2OC(COC(=O)c3ccccc3)C(=O)C2O1 (stereo not drawn)
survivor count (dose: 25.0 mg/kg/injection, schedule: Q01DX009 (ip), vehicle: saline with Tween-80): 6 of 6
